# From patent US12187758B2 (ROME Therapeutics, Inc., priority 2022, dated 2025)
# For at least one compound, name, drawing or mass did not settle the structure.
# What was measured:
# [1] = system: THP1-Dual KO-TREX1 xenograft tumors; experiment: THP1-Dual TREX1 KO xenografts with decitabine-induced IFN; type: in vivo, CB-17 SCID female mice; settings: decitabine 5 mg/kg IP once daily for 4 days; luciferase in tumor lysates; FIG. 5
# [2] = system: interferon-stimulated gene (ISG) response; experiment: In vivo decitabine challenge model in C57BL/6 mice; settings: repeated dosing of decitabine 5 mg/kg i.p., control animals
# Experimental: Exemplary compounds were tested for ability to alter the interferon-stimulated gene (ISG) response in C57BL/6 mice treated with decitabine. Assay procedures and results are described below. Twenty 9-11 week old C57BL/6 mice were acclimated to the lab for at least 5 days. Compound 23 was prepared in a 0.5% methylcellulose solution for p.o. administration. Decitabine (Sigma-Aldrich) was dissolved in sterile PBS (pH 7.4) and dosed within 30 minutes of preparation of the solution. Doses of both the compound and decitabine were administered once a day, every day from Day 0 to Day 4. […] The fold changes in interferon-stimulated gene (ISG) expression was calculated by first normalizing to GAPDH gene using the Delta CT method. The CT (gene of interest) —CT (reference gene) was calculated to generate a delta CT for all samples. […] The fold changes in interferon-stimulated gene (ISG, specifically IRF7 and MX1) expression was calculated by first normalizing to GAPDH gene using the Delta CT method. The CT (gene of interest)−CT (reference gene) was calculated to generate a delta CT for all samples. The fold change was then calculated by taking the […](Delta CT(control)−Delta CT (experimental). The control in this example was the PBS control animal group. Individual primers were used to amplify target genes.
compound,measurement,setting,value
"Nc1ncn([C@H]2C[C@H](O)[C@@H](CO)O2)c(=O)n1 [decitabine, reference compound]",interferon signal in THP1 tumors,[1],increase in interferon signal in THP1 tumors over time
same,"interferon-stimulated gene (ISG) response in the spleen, FIG. 1A and FIG. 1B",[2],induces interferon-stimulated gene (ISG) response in the spleen
